Patent US20260265694A1, “USE OF A VITISIN COMPOUND FOR THE PRODUCTION OF HEMATOPOIETIC CELLS” (ETABLISSEMENT FRANCAIS DU SANG, priority 2022, published 2026)
At least one structure is not confirmed: it was looked up by name or label, or the drawing left a doubt.

Tested on: CD34+ cells from peripheral blood
Test: AMPLIFICATION PROTOCOL: ex vivo amplification of hematopoietic progenitors
Type: cell-based, human
Details: 10 μM, FIG. 2
Experimental: This is a strategy for the amplification of hematopoietic progenitors. The culture is formed as follows: CD34^+ cells from peripheral blood are isolated (as indicated in section II.A.1), and cultured for 12 days in Stem Span II medium (Stem Cell Technologies) supplemented with cytokines: SCF 100 ng/mL, FLT3-L 100 ng/mL, TPO 20 ng/mL, G-CSF 10 ng/mL. The amplification product is analyzed by quantification of proliferation (count on Malassez slides) and phenotypic analysis of CD34^+ cell subpopulations by flow cytometry. […] Vitisin B is also compared with the following stilbene-type molecules at 10 μM concentration: Resveratrol, Pallidol, E-Viniferin, Ampelopsin, Oxyresveratrol, Picateatannol, Gnetol
At the end of the hematopoietic cell amplification protocol, an analysis of cell proliferation and amplification of immature and committed cell populations is performed.
Cell proliferation is evaluated by counting cells on Malassez slides with Trypan blue exclusion of dead cells.
The amplification of cell populations is based on a phenotypic analysis relating to the evolution of the expression of membrane markers CD34 and CD133 by flow cytometry. […] After resuspension of the cell pellets in PBS, the cells are analyzed by flow cytometry (FACSCantoll, Becton Dickinson, San Jose, CA). […]

SMILES: Oc1ccc([C@@H]2c3c(O)cc(O)cc3[C@H]3[C@H](c4ccc(O)cc4)c4c(O)cc(O)cc4[C@@H]23)cc1 [PALLIDOL, Pallidol]
- effect on the proportion and total amount of CD34+CD133neg cells: only vitisin B has a convincing effect
